Measured values as given in patent publication US8128952B2, “Ligand-mediated controlled drug delivery” (Clemson University Research Foundation, priority 2005, dated 2012).

Experiments:
[1] = Release of BSA and IgG from 10 wt % PEG 3400 DA gels without ligand; type: physicochemical; conditions: 10 wt % PEG 3400 DA gel, 5% drug loading, no ligand
[2] = Release of IgG from 10% PEG 3400 DA gels copolymerized with MAH ligand; type: physicochemical; conditions: gel containing no ligand, 5 wt % drug loading

Substance: immunoglobulin G [IgG]
- initial burst (cumulative percentage release) [1]: ~12%
- cumulative (fractional) release by the end of the first 6 hours [2]: ~28%
